End groups of sequences in plain letters are not given here.
Test: peptide made by a vendor
Conditions: whole synthesis, RP-HPLC

## LRVRRTLQCSCRRVCRNTCSCIRLSRSTYAS
  final HPLC purity: >95%

— patent publication US7521535B2 (priority 2006, dated 2009)
